Measured values as given in the supplement of paper PMC10849652.
The list shows a part of the results.

Sequences of proteins named here, by UniProt entry; tags and fusion partners are left off. A change or cut given only in a name is not applied to a line headed by its entry.
UniProt Q5VZ89: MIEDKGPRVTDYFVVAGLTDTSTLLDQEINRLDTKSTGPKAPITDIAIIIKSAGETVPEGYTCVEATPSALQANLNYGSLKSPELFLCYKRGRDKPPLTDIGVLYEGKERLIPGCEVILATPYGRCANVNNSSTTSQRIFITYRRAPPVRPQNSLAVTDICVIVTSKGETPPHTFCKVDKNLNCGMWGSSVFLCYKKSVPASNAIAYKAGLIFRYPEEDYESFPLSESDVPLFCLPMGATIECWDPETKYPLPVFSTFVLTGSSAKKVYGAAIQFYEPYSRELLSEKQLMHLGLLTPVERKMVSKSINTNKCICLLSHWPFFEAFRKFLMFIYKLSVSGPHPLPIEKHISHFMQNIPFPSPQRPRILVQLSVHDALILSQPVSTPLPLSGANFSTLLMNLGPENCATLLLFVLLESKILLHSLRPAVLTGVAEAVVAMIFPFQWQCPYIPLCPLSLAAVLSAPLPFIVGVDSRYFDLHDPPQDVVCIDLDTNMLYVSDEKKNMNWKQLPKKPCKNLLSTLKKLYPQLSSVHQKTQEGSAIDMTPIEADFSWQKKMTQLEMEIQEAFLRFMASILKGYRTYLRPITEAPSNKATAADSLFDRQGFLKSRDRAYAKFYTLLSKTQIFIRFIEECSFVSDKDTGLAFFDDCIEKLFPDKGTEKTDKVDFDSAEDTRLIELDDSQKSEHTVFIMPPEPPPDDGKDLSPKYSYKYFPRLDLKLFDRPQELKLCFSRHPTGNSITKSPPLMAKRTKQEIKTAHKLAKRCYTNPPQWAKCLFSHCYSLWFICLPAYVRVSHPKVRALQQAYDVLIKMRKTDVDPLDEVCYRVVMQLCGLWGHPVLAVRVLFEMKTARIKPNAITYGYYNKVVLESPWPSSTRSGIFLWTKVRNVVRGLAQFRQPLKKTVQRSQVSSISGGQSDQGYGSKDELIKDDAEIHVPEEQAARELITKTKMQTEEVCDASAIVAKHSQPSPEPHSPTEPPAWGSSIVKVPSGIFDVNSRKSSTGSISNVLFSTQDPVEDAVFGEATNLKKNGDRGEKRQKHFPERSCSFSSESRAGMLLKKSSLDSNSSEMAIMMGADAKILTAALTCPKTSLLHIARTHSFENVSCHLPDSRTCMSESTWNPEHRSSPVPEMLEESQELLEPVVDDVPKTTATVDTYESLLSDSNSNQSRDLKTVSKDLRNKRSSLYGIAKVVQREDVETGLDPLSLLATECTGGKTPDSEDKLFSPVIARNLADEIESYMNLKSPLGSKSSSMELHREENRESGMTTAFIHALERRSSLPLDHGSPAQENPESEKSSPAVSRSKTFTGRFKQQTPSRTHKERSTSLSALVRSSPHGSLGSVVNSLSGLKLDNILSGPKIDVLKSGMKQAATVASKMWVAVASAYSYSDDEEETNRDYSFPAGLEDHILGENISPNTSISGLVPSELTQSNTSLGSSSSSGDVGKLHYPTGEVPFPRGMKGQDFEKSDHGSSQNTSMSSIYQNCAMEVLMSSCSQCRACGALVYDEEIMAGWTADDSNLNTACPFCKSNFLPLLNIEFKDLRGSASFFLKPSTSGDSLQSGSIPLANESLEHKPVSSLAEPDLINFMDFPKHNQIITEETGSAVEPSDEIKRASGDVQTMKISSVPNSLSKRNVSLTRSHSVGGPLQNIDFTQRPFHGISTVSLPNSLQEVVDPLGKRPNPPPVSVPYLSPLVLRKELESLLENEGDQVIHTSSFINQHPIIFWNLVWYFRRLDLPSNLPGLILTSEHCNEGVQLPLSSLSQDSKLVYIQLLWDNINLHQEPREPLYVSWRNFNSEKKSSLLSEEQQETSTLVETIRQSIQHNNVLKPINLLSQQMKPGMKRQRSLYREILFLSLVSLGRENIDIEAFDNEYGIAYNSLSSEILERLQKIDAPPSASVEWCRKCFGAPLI
UniProt P26196: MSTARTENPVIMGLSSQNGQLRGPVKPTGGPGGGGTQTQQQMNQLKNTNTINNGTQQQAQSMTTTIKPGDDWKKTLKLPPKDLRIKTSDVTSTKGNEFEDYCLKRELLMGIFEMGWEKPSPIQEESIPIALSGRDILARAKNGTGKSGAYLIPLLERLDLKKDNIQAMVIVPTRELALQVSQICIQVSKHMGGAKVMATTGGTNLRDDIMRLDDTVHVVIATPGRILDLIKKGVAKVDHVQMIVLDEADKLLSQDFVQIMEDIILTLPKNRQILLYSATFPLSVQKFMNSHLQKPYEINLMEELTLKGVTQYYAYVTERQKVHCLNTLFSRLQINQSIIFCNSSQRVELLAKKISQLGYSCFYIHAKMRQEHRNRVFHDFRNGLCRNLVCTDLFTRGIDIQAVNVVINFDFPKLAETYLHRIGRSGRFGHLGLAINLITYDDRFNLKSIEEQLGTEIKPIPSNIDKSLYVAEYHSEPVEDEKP
UniProt Q9NVR5: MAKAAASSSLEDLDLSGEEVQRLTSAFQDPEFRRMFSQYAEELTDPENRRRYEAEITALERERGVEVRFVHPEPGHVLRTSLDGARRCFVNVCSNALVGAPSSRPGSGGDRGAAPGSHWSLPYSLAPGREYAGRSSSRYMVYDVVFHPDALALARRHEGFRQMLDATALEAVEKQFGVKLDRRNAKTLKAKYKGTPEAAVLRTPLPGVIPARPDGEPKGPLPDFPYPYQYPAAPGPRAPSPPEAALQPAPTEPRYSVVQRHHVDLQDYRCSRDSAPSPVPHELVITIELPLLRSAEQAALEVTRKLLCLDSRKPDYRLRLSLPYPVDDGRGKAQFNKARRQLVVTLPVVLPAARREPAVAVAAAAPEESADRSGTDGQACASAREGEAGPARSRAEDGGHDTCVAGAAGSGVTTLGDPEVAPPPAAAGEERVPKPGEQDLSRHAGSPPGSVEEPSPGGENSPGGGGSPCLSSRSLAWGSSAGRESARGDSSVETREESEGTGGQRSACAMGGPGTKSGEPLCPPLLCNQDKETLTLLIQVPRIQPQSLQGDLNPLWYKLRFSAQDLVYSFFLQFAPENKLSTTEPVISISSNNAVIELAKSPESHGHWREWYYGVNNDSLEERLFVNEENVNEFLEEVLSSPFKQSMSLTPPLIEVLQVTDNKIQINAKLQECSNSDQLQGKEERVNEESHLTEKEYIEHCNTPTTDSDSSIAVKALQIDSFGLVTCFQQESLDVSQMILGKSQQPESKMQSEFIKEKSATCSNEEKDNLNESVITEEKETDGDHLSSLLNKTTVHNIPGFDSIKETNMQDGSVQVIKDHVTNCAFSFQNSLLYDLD
UniProt Q96HY6: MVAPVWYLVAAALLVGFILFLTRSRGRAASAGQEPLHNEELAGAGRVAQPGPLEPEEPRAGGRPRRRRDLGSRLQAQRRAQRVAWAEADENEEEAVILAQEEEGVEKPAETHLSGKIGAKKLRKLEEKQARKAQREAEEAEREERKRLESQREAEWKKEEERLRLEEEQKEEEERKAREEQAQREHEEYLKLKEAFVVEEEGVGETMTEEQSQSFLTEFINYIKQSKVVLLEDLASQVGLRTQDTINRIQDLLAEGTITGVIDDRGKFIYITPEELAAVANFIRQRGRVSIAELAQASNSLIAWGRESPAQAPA
UniProt Q92796: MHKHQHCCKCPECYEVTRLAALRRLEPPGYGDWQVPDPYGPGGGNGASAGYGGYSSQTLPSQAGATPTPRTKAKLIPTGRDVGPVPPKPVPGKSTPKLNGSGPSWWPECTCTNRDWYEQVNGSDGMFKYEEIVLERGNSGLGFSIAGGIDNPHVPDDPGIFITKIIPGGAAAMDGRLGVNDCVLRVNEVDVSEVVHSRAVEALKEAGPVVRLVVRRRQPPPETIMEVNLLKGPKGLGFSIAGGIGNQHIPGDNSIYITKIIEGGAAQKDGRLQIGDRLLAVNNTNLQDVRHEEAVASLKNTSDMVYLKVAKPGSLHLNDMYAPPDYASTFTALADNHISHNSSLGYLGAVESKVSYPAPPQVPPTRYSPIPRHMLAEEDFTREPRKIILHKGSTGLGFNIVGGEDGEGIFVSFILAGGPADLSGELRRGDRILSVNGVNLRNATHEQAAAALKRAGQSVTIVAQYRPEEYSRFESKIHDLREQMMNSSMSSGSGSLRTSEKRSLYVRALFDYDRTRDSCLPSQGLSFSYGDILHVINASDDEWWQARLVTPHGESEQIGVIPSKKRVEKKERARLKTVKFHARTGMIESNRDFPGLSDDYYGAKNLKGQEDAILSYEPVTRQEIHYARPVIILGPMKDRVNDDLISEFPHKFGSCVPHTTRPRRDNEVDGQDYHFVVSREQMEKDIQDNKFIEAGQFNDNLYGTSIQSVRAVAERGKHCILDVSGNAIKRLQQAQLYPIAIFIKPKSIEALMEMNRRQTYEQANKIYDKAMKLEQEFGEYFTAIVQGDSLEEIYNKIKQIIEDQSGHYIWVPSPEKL
UniProt Q9UNQ2: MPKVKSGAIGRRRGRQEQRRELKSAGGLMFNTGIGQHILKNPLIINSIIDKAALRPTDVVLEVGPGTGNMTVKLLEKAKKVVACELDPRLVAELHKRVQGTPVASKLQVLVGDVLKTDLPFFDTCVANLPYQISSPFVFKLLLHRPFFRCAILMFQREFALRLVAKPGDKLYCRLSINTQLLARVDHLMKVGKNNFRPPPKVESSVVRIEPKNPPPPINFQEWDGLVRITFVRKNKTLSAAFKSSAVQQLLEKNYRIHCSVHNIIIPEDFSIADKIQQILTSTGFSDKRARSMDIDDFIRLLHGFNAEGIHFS
UniProt Q9BTZ2: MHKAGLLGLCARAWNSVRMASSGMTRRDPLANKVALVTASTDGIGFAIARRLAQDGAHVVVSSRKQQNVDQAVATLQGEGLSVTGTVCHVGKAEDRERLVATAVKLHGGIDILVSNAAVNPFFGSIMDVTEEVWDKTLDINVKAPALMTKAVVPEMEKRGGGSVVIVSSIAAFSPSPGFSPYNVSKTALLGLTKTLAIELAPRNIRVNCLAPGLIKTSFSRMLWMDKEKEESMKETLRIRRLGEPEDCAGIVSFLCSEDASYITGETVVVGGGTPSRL
UniProt P52429: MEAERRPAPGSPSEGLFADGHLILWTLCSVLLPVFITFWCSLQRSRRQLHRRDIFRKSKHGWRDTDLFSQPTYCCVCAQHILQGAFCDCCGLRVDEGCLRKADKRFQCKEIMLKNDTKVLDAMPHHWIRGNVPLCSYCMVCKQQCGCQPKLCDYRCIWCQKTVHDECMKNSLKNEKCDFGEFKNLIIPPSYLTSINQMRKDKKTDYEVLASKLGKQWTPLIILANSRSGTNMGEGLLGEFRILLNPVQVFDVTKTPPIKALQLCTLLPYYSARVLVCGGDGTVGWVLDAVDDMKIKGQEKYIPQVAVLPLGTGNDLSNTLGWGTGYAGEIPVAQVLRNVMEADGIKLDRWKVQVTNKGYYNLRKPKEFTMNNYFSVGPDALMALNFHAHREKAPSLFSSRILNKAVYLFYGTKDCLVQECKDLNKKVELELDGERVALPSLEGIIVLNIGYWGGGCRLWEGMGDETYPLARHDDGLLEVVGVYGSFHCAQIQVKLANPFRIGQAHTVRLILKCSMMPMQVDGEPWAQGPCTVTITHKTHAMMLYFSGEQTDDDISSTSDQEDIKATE
UniProt A8MPP1: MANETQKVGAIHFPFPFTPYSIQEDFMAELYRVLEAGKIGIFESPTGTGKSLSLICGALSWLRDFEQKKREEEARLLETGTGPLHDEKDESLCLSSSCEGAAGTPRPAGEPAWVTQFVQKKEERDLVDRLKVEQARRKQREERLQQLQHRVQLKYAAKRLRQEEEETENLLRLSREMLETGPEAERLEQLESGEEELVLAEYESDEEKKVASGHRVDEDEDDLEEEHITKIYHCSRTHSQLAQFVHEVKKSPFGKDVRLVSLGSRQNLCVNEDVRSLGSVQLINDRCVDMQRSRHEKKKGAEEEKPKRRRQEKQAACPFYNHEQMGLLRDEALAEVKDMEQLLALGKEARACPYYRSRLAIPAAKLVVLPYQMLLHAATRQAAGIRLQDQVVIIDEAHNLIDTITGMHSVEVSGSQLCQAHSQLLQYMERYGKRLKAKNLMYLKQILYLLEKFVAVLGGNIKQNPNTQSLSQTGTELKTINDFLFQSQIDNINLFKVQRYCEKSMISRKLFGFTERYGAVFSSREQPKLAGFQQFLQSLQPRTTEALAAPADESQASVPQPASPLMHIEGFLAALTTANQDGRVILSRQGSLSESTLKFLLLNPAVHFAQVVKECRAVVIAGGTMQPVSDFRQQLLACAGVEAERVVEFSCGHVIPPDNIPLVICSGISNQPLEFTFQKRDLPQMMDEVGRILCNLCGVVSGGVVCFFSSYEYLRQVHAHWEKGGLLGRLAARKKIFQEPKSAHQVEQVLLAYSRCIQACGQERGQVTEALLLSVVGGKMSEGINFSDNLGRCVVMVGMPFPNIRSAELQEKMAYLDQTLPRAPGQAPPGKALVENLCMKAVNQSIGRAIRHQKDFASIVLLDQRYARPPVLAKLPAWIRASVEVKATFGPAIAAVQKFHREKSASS

Key:
Assay in all cases: log2 fold change, soluble protein after heating vs DMSO (PISA); higher = thermal stabilisation; K562 cells, 10 uM, 30 min; active = over 0.2 and 3.5 SD of the protein, either way, in both replicates (recomputed)
[1] = compound: C1=CC=C(C=C1)[C@H](COC2=CC3=C(C=C2)NC(=O)N3)NC(=O)C4=CC=CN(C4=O)CC5=CC(=C(C=C5)F)F
In short: (§1)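 Quantification of soluble protein used TMTpro 16plex LC-MS/MS, with channel sums equalised. Samples were the supernatant after 21,000xg for 90 min of pooled aliquots from K562 cells (2×10^6 cells/mL) treated with 10 μM compound for 30 min, heated for 3 min over 48°C-58°C, and extracted in PBS with 0.5% NP-40 at 4°C. Values, from duplicates, describe thermal stability against control samples on a log2 fold-change scale.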

[2] = compound: CC1=C(SC2=C1C(=N[C@H](C3=NN=C(N32)C)CC(=O)N)C4=CC=C(C=C4)Cl)C
In short: as §1

[3] = compound: CC1=C2C(=CC=C1)N=C(N(C2=O)C3=CC=CC=C3C)CN4C=NC5=C(N=CN=C54)N
In short: as §1

[4] = compound: Cc1sc2c(c1C)C(c1ccc(Cl)cc1)=N[C@@H](CC(=O)OC(C)(C)C)c1nnc(C)n1-2
In short: as §1

[5] = compound: c1ccc([C@@H]2C[C@H]2NC2CCNCC2)cc1
In short: as §1

Measured: log2 fold change

DENND4C isoform 7 (UniProt Q5VZ89)
inactive: [1] -0.102 | [2] -0.04 | [3] 0.015 | [4] 0.013 | [5] 0.021

DDX6 (UniProt P26196)
inactive: [1] -0.022 | [2] 0.009 | [3] 0.009 | [4] 0.038 | [5] -0.013

DNAAF2 (UniProt Q9NVR5)
inactive: [1] 0.039 | [2] 0.02 | [3] -0.013 | [4] -0.003 | [5] 0.002

2 records picked at random from those above, as already listed:
DENND4C isoform 7 (UniProt Q5VZ89)
inactive: [1] -0.102 | [2] -0.04 | [3] 0.015 | [4] 0.013 | [5] 0.021

DDX6 (UniProt P26196)
inactive: [1] -0.022 | [2] 0.009 | [3] 0.009 | [4] 0.038 | [5] -0.013

(list continues)

DDRGK1 (UniProt Q96HY6)
inactive: [1] 0.019 | [2] -0.008 | [3] 0.012 | [4] -0.018 | [5] 0.063

DLG3 (UniProt Q92796)
inactive: [1] -0.065 | [2] -0.06 | [3] -0.094 | [4] 0.03 | [5] -0.005

DIMT1 (UniProt Q9UNQ2)
inactive: [1] 0.045 | [2] -0.203 | [3] -0.222 | [4] 0.125 | [5] 0.005

DHRS4 (UniProt Q9BTZ2)
inactive: [1] 0.017 | [2] 0.014 | [3] 0.039 | [4] 0.005 | [5] -0.008

DGKE (UniProt P52429)
inactive: [1] -0.059 | [2] -0.026 | [4] -0.023 | [5] -0.093

DDX28 (UniProt Q9NUL7)
inactive: [2] -0.102 | [5] 0.041

DDX11L8 (UniProt A8MPP1)
inactive: [1] 0.02 | [2] 0.152 | [5] -0.379
